Assay results as given in patent US20260207602A1, “EGFR INHIBITORS” (Blueprint Medicines Corporation, priority 2022, published 2026).
Structures were worked out from names or drawings and are uncertain.

Protein sequences, listed by entry. Tags and fused reporters are not part of them. Lines headed by an entry give the natural chain unless they say otherwise; changes in a name come on top. Residues count along the entry.
UniProt P00533, 25-1210 L858R limits assumed: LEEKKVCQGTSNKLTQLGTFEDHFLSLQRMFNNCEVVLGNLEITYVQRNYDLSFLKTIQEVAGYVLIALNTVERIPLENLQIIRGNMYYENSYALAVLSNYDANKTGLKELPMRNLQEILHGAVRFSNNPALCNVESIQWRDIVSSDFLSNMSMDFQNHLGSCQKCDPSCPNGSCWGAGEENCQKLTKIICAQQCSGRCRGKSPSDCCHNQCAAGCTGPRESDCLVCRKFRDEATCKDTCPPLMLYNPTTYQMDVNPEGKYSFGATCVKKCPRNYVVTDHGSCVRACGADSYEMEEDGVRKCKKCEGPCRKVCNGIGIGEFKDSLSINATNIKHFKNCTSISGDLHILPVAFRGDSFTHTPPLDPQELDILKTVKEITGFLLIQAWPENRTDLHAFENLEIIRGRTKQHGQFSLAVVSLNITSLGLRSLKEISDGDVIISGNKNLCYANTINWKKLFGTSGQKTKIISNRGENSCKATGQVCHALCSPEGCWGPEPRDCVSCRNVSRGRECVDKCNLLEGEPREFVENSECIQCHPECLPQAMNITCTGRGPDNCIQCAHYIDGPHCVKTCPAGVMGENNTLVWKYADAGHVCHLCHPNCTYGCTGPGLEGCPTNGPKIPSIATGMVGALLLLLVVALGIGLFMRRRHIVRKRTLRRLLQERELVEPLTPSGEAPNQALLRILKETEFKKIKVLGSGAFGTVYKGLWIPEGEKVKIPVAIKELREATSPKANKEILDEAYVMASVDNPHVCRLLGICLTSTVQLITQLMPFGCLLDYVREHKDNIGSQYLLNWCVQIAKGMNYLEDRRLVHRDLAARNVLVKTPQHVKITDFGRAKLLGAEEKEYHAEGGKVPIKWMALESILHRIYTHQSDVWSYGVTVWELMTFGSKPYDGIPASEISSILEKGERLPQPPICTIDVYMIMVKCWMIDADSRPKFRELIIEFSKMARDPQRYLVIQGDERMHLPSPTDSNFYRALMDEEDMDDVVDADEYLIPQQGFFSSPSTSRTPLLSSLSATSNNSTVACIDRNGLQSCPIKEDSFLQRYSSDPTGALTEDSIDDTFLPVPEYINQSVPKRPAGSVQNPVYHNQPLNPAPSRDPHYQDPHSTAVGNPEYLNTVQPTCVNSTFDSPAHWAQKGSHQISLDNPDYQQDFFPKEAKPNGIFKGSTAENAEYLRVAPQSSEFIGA

Columns and labels:
[1] = target: intracellular phosphorylation of EGFR (Tyr1068) in PC-9 cells (Homo sapiens, UniProt P00533, DEL746-750); experiment: PC-9 pEGFR AlphaLISA assay; conditions: read-out: Phos EGFR PC9 IC50, 4 hours incubation
EGFR (d746-750) = EGFR (d746-750) (Homo sapiens, UniProt P00533, DEL746-750); experiment: Biochemical EGFR inhibition assay (Caliper mobility shift), EGFR (d746-750); conditions: read-out: Enz EGFR Exon 19-del IC50, EGFR Exon 19-del enzyme
EGFR L858R = EGFR L858R (Homo sapiens, UniProt P00533, L858R); experiment: Biochemical EGFR inhibition assay (Caliper mobility shift), EGFR L858R; conditions: read-out: Enz EGFR L858R IC50, EGFR L858R enzyme

IC50 [1]: < 10 nM
IC50 (EGFR (d746-750)): < 10 nM
IC50 (EGFR L858R): < 10 nM
SMILES: CC(Oc1cc(-c2cnn(C)c2)cc2ncnc(Nc3ccc4ncsc4c3F)c12)C1COC1 (single isomer, unassigned)
